Measured values as given in US4806532A, “Inhibition of epithelial phosphate transport” (Mayo Foundation for Medical Education and Research, priority 1985, dated 1989).
For at least one compound, name, drawing or mass did not settle the structure.

Target: T1, Na-Pi cotransporter (Rattus norvegicus, UniProt Q06496)
T1 construct: from tissue; host or cells: rat renal cortex, brush border membrane vesicles
T1 sequence (Q06496 1-637): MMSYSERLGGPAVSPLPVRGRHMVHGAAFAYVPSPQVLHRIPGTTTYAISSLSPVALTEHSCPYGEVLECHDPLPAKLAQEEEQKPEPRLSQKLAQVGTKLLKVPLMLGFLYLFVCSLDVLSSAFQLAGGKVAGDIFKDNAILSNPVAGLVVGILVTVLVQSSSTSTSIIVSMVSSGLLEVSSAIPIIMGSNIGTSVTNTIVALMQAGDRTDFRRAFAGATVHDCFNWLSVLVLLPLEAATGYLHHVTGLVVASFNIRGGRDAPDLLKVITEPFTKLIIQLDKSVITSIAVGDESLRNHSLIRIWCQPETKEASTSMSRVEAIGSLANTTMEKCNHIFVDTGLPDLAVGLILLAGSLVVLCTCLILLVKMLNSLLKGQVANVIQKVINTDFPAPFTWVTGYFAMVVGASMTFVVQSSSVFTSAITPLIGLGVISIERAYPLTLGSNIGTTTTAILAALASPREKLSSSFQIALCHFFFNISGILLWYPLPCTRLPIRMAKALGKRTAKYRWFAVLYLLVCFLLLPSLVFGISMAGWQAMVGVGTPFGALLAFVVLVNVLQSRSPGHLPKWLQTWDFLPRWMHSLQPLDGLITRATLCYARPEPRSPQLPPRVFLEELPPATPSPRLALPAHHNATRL
Experiment: Na+-gradient-dependent 32Pi uptake by renal cortical BBMV (rapid filtration)
Format: biochemical
Description: The brush border membrane vesicles (BBMV) were prepared from renal cortical tissue of adult male Sprague-Dawley rats of an average body weight of about 220 grams. Rats were fed ad libitum standard rat chow containing 0.7% Pi and had free access to distilled water. Rats were sacrificed under anesthesia and dissected renal cortical tissue was used for preparation of BBMV fraction by the divalent cation-precipitation procedure, employed and described in detail in J. Clin. Invest., 67, 1347 (1981) and J. Biol. Chem., 258, 5695 (1983), with the following modifications: (a) MgCl2 instead of CaCl2 was added to crude homogenate (final concentration 10 mM MgCl2) to precipitate membranes other than BBMV; (b) in the final step, BBMV were washed and equilibrated in a medium of pH=7.5, instead of pH=8.5. […]
The BBMV uptake of ^32 Pi, D-[^3 H]-glucose, L-[^3 H]-proline and ^22 Na^+ was measured by means of a rapid filtration technique, as described in J. Clin. Invest., 67, 1347 (1981) and Am. […]
In most experiments, the Na^+ -gradient-dependent ^32 Pi uptake in the concentrative "uphill" phase was measured at 20 seconds period. Since Na^+ -independent Pi uptake in this time period was quantitatively minor component (<5%) of the Na^+ -gradient-dependent Pi uptake, it was not routinely subtracted.

## O=C(O)CCP(=O)(O)O [PPA, phosphonopropionic acid, reference compound]
  effect on Na+-gradient uptake of Pi by renal BBMV (in words): without effect
